Results: patent US20100015154A1
Results are given in words; binding and its absence hold for the method and conditions named. Some entries that bind do so weakly or less than the wild type.

Target: T1, Peptide 2a (human)
T1 sequence (peptide): RKGVYVPYTQGKWEGE
Assay: solid-phase anti-peptide ELISA (FIG. 13)

binding: binds
B1: monoclonal antibody M2 1003 (antibody, V domains shown)
VH: SGAELVRPGASVKMSCKASGYTFTTYTMHWVKQTPGQGLEWIGAIYPGNGGTSYNQKFKGMATLTVDTSSSTAYMQISSLTSEDSAVYFCARGGDKYGMDYWGQGTTVTVSS
VL: DIQMTQSPSSLAVSAGEKVTMSCKSSQSLLNSRTRKNYLAWYQQKPGQSPKLLIYWASTRESGVPDRFTGSGSGTDFTLTISSVQAEDLAVYYCKQSYILPTFGGGTKLEIKR
